No constants are given. Whether binding was seen depends on the method and setting. In cells and extracts the contact can be indirect. Here binding means that the protein was enriched with, or labelled near, the bait; the list need not be complete.
T1: PfPrx1a wild type (P. falciparum) (UniProt Q8IL80)
T1 sequence: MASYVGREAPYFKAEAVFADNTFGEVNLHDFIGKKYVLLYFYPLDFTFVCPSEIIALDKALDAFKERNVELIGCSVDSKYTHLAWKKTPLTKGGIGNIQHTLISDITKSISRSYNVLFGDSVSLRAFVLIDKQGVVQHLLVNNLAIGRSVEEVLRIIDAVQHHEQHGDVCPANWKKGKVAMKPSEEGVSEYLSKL


Key:
[1] = target: PfPrx1a^C50S (P. falciparum); assay: affinity purification with mass spectrometry; […], RT, 2 h; […], pH 8.0; […]; only the target purified
[2] = target: T1, PfPrx1a wild type (P. falciparum); assay: affinity purification with mass spectrometry; mixed disulfide fishing: reduced His-tagged Prx (wild type or Cys mutant) coupled to CNBr-activated Sepharose 4B, incubated with about 6 mg P. falciparum 3D7 trophozoite lysate protein, RT, 2 h; washed with 100 mM Tris, 500 mM NaCl, pH 8.0; eluted with 10 mM DTT; proteins found in two or three of three experiments, those on empty beads subtracted; only the target purified
[3] = target: PfPrx1m^C187S (P. falciparum); assay: affinity purification with mass spectrometry; […], RT, 2 h; […], pH 8.0; […]; only the target purified

Binder	binding [1]	binding [2]	binding [3]
phosphoglycerate kinase (enzyme, UniProt P27362 1-416) MLGNKLSISDLKDIKNKKVLVRVDFNVPIENGIIKDTNRITATLPTINHLKKEGASKIILISHCGRPDGLRNEKYTLKPVAETLKGLLGEEVLFLNDCVGKEVEDKINAAKENSVILLENLRFHIEEEGKGVDANGNKVKANKEDVEKFQNDLTKLADVFINDAFGTAHRAHSSMVGVKLNVKASGFLMKKELEYFSKALENPQRPLLAILGGAKVSDKIQLIKNLLDKVDRMIIGGGMAYTFKKVLNNMKIGTSLFDEAGSKIVGEIMEKAKAKNVQIFLPVDFKIADNFDNNANTKFVTDEEGIPDNWMGLDAGPKSIENYKDVILTSKTVIWNGPQGVFEMPNFAKGSIECLNLVVEVTKKGAITIVGGGDTASLVEQQNKKNEISHVSTGGGASLELLEGKELPGVLALSNK	binds	binds	–
phosphoethanolamine N-methyltransferase (PMT) (enzyme, UniProt Q8IDQ9 1-266) MTLIENLNSDKTFLENNQYTDEGVKVYEFIFGENYISSGGLEATKKILSDIELNENSKVLDIGSGLGGGCMYINEKYGAHTHGIDICSNIVNMANERVSGNNKIIFEANDILTKEFPENNFDLIYSRDAILHLSLENKNKLFQKCYKWLKPTGTLLITDYCATEKENWDDEFKEYVKQRKYTLITVEEYADILTACNFKNVVSKDLSDYWNQLLEVEHKYLHENKEEFLKLFSEKKFISLDDGWSRKIKDSKRKMQRWGYFKATKN	binds	binds	–
glutathione S-transferase (enzyme, UniProt Q8ILQ7 1-211) MGDNIVLYYFDARGKAELIRLIFAYLGIEYTDKRFGVNGDAFVEFKNFKKEKDTPFEQVPILQIGDLILAQSQAIVRYLSKKYNICGESELNEFYADMIFCGVQDIHYKFNNTNLFKQNETTFLNEDLPKWSGYFEKLLKKNHTNNNNDKYYFVGNNLTYADLAVFNLYDDIETKYPSSLKNFPLLKAHNEFISNLPNIKNYITNRKESVY	–	–	binds
Ras-related protein Rab-2 (RAB2) (protein, UniProt Q9BHT6 1-213) MSPYEYLFKYIIIGDTGVGKSCLLLQFTDKRFRADHDLTIGVEFGARLVNLDNKQIKLQIWDTAGQESFRSITRSYYRGAAGALLVYDITRRETFNHLNRWLDEVRQNSNPHMAIILVGNKCDLERREVSAEEGAQFARQNGLIFLETSAKTAKNVEEAFLYTARKIYDNILEDVYDLSNESYGIKYGPNSQYSRVKLDIPSMPESRSGFSCC	–	binds	–
S-adenosylmethionine decarboxylase/ornithine decarboxylase (enzyme, UniProt Q8IJ77 1-1434) MNGIFEGIEKRVVIKLKESFFKGNRNVNSFLDIPKELWEEKLKYIGCSIVSEISEDKNERRGERCRVYLLSESSLYIFDDSLFIKTCGKTRVLFFIPFVVDLLIYHMDNVGIIEKNCVYDETFIENEKFHNIAEFIKEHFLYCFFTHMNYRNKTKDGYFEQEYPHKSLEDEKKFFEFFFKNVQMYNTHLPMEKMHYIFFYSSDDVHMTDIASTFKFCSEIHLFGINKYNEKNQFHDAYLNNKSLNLFTRVHEDNLKLYDSSDADKEVTTHIYSTRGTYEDTGMVNCVDVIYKNESTLLNRNNIENIPSIENKESNNNSRCCHNNNYSGSCHNIVSVVPSERNNDHVHHRHYEDTLNRSNISAEDNNRNAQLEKEKDEDVRRDDEENKVLIKMIDTNLYECINYNKESFLYNEFYFTPCGYSCNVSEKNNYFCVHYSPEDSVSYVSVEVSSNLSCDRFLDFMHKQLNFYNGKYMFMINYVFCEESNNMSKMVPDDDNNNYSSGKSCVYYQDLNKKEKEEYYRLNKKLRNDLFINSKQFYELHTFTERTVGFMRVQYFVYKLRDVVKCVEKETLLARSSSCLFMFNNIKRNDVHDDYVTKSSNGGVIKQLTERDVDDMYEYALNFCKQNKIVVVDTNTFFDASKRKENLIKLEKVQTNEKDEYEEKDEVYRRGNNELSSLDHLDSKNNLIHMYYEKNKCDIINKDDENSTIATNNNDNNNDNNNDSSSYDKSITISRSSSCNNSHLSYSSFDNNHGNEKMKDYISVDENNNNNNNNNNNNNNNNNKNNNVLLTLQRNSDDENGKDKDNEKNDVSLENNMEKNYKEEIWNYYTKNKVEVKTLEKVLNENIDTSVVCINLQKILAQYVRFKKNLPHVTPFYSVKSNNDEVVIKFLYGLNCNFDCASIGEISKVIKLLPNLSRDRIIFANTIKSINSLIYARKENINLCTFDNLDELKKIYKYHPKCSLILRINVDFKNYKSYMSSKYGANEYEWEEMLLYAKKHNLNIVGVSFHVGSNTKNLFDFCLAIKLCRDVFDMSSNMGFNFYIINLGGGYPEELEYDNAKKHDKIHYCTLSLQEIKKDIQKFLNEETFLKTKYGYYSFEKISLAINMSIDHYFSHMKDNLRVICEPGRYMVAASSTLAVKIIGKRRPTFQGIMLKDLKDHYDPLNFAQQENKKQDETKINHNNDNNDNNDNNDNNDNNINNNNNNQKGGQGNIMNDLIITSTNDSTNKKNDHSSSQVIQNVSCTIRDKEGDNIKINTHTINNPNINGKENTVDGDNINIAHKNIGNNFSSSNSKLGNITNIKKKVVNINDNRYNYFSYYVSDSIYGCFSGIIFDEYNRCPIYVIKNKNNPNQNFMNFNLYLANVFGQSCDGLDMINSITYLPECYINDWLLYEYAGAYTFVSSSNFNGFKKCKKVYIFPESKPSLKGQPNKHW	–	binds	–
40S ribosomal protein S3A (protein, UniProt O97313 1-262) MAVGKNKRTSKGKKGGKKKVTDVFTKKEWYDLKAPKMFLVRNFGKTLVTKTIGKKLATDSLKGRIYEVNLADLNNDEDQAHKKIKLSCDHIINRDCYTDFCGLSITRDKLCSLIRKGYTLIEGHTDVKTLDNYHLRMFCIAFTKKRQNQTKSTCYAQTSQIKKIRKKMVDIMTAEASKVLLKDLVKKFIPESIGKEIEKQCKKIYPLQNVLIRKVKILKRPKLDISKLMELHTDPKEESGKNVNALPESKEATNILTAELKH	–	binds	–
small GTP-binding protein sar1 (SAR1) (protein, UniProt Q8I1S0 1-192) MFIINWFRDILAHLGLSQKSARILFLGLDNAGKTTLLHMLKDDRVAQHVPTLHPHSEELVVGKIRFKTFDLGGHETARRIWRDYFAAVDAVVFMIDTTDRSRFDEAREELRHLLETEELSNVPFVVLGNKIDKPDAASEDELRQHLNLFSNITVHNNMKGGSGVRPVELFMCSVIRRMGYAAAFKWISQFLT	–	binds	–
60S acidic ribosomal protein P2 (PfP2) (protein, UniProt O00806 1-112) MAMKYVAAYLMCVLGGNENPSTKEVKNVLGAVNADVEDEVLNNFIDSLKGKSCHELITDGLKKLQNIGGGVAAAPAGAAAVETAEAKKEDKKEEKKEEEEEEEDDLGFSLFG	binds	binds	–
fructose-bisphosphate aldolase (enzyme, UniProt Q7KQL9 1-369) MAHCTEYMNAPKKLPADVAEELATTAQKLVQAGKGILAADESTQTIKKRFDNIKLENTIENRASYRDLLFGTKGLGKFISGAILFEETLFQKNEAGVPMVNLLHNENIIPGIKVDKGLVNIPCTDEEKSTQGLDGLAERCKEYYKAGARFAKWRTVLVIDTAKGKPTDLSIHETAWGLARYASICQQNRLVPIVEPEILADGPHSIEVCAVVTQKVLSCVFKALQENGVLLEGALLKPNMVTAGYECTAKTTTQDVGFLTVRTLRRTVPPALPGVVFLSGGQSEEEASVNLNSINALGPHPWALTFSYGRALQASVLNTWQGKKENVAKAREVLLQRAEANSLATYGKYKGGAGGENAGASLYEKKYVY	binds	binds	–
